# These are yes or no findings as the source states them, for the method shown. Binding seen in cells or lysates may run through a third protein.
# By UniProt entry, the sequences of proteins in these tests, tags left out. Where a name states a change or a piece, a line headed by the entry shows the natural chain unless it says otherwise.
# UniProt Q9Y6K9: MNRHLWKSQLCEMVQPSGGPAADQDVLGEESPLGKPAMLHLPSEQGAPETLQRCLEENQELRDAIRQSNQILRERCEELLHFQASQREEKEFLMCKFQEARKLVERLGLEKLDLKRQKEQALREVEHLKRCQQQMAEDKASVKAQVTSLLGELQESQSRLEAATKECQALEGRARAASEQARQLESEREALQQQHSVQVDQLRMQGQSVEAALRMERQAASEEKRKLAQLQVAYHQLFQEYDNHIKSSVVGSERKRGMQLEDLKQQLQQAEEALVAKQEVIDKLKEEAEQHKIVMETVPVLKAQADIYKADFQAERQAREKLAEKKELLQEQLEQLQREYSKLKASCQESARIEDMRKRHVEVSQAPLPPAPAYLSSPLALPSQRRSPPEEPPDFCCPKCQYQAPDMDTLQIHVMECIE
# UniProt Q7Z434: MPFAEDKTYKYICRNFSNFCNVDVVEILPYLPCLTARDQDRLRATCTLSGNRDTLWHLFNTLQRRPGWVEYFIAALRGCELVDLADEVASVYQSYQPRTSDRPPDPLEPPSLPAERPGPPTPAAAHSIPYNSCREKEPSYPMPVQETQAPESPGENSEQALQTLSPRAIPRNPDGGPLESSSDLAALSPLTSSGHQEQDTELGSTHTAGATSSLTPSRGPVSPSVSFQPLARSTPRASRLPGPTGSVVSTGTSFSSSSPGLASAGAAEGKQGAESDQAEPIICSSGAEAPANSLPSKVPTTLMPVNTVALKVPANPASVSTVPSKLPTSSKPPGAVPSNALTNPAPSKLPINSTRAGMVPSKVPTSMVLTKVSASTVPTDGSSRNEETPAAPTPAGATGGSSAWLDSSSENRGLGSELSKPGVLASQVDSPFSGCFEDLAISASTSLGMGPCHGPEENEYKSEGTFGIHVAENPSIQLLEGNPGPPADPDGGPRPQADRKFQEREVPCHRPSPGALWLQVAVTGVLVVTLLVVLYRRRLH
# Molecular target: Flag-NEMO UBD mutant (UBDm; Y308S/H413A/C417A), purified (human) (UniProt Q9Y6K9)
# Assay: co-IP; in vitro: 200 ng purified Flag-NEMO (WT or UBDm), 200 ng His6-MAVSΔTM, in the presence of 200 μg HeLa S100, 2 mM ATP, 5 mM MgCl2, 20 mM HEPES-KOH pH 7.0, 30°C for 1 hr; Flag (M2) agarose at 4°C overnight; immunoblot of MAVS; both purified
substance,measurement,value
His6-MAVSΔTM (MAVS without its transmembrane domain) (from UniProt Q7Z434) (domain or fragment),binding,no binding

# Reference: PMC3743401
